Laboratory results as given in patent publication US12337016B2, “Composition for preventing or treating ocular diseases comprising amniotic epithelial cell derived exosomes” (KYUNGPOOK NATIONAL UNIVERSITY INDUSTRY-ACADEMIC COOPERATION …, priority 2020, dated 2025).
At least one structure is not confirmed: it was looked up by name or label, or the drawing left a doubt.

Tests used:
[1] = tested on: cytokines in mouse cornea; test: Cytokine expression in corneal tissues of animal model with dry eye syndrome (real-time PCR); assay type: in vivo; settings: dry eye syndrome-induced mice (FIG. 12)
lacrimal gland tissues = test: Alcian blue staining of lacrimal gland tissues in animal model with dry eye syndrome; assay type: in vivo, mice; settings: treated up to 14 days after dry eye induction (FIG. 11)

C[C@@H]1C[C@H]2[C@@H]3CCC4=CC(=O)C=C[C@]4(C)[C@@]3(F)[C@@H](O)C[C@]2(C)[C@@]1(O)C(=O)CO [DEX, dexamethasone] was tested, and the “cytokine concentration in corneal tissues” value [1] was “reduced” and the “acinus structure of the lacrimal gland (alcian blue staining)” value (lacrimal gland tissues) was “recovery took place”.
